Data published in paper PMC10688137.
No constants are given. Whether binding was seen depends on the method and setting. In cells and extracts the contact can be indirect. Some binding calls cover weakened binding; strength is not graded here. Sequences can lack the tags named with a protein.

Sequences of proteins named here, by UniProt entry; tags and fusion partners are left off. Residues count along the entry.
UniProt P19438, residues 30-455: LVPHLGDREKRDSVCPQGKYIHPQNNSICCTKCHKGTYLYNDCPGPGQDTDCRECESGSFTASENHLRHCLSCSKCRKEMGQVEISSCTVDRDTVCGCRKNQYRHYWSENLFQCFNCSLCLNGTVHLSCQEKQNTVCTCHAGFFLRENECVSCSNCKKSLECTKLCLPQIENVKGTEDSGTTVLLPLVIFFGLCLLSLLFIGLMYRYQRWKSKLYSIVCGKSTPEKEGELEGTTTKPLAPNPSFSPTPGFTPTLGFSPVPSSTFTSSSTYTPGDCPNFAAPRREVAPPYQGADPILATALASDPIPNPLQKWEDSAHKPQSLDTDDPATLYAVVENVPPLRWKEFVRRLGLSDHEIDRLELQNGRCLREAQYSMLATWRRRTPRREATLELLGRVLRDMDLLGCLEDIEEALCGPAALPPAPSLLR

Target: T1, GST-tagged SCEL recombinant protein (human) (UniProt O95171)
T1 sequence: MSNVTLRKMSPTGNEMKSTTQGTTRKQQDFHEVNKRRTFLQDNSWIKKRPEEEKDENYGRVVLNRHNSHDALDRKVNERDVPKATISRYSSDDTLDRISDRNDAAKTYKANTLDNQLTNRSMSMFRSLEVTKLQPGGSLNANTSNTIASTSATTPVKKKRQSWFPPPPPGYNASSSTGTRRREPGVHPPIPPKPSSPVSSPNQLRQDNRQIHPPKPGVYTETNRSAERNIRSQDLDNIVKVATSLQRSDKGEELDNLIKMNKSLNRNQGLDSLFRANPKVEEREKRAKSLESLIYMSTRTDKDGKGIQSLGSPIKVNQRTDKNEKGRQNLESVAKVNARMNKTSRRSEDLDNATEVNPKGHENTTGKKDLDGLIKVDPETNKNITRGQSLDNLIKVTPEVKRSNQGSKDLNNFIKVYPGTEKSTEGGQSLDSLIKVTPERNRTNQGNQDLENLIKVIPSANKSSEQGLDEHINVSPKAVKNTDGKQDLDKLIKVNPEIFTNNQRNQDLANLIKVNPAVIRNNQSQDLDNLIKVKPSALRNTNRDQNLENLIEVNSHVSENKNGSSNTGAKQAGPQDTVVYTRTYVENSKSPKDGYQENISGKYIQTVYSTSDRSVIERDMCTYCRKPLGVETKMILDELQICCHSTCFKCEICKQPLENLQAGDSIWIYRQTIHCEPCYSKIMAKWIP
Assay: pull-down; 5 ug purified GST-SCEL on Glutathione Sepharose 4B; 50 uL beads in 500 uL control lysate or His-tagged TNFR1-expressing cell lysate (25 mM Tris-HCl, 150 mM NaCl, 10% glycerol, 1% NP40) at 4 C overnight; western blotting; only the target purified

binding: binds
Substance: His-tagged TNFR1 (from UniProt P19438 30-455) (receptor)
